Laboratory results: PMC9925369
Results are given in words; binding and its absence hold for the method and conditions named. In cells and extracts the contact can be indirect. Here binding means that the protein was enriched with, or labelled near, the bait; the list need not be complete.

Amino acid sequences for entries named in this document (tags omitted).
UniProt Q9UH17: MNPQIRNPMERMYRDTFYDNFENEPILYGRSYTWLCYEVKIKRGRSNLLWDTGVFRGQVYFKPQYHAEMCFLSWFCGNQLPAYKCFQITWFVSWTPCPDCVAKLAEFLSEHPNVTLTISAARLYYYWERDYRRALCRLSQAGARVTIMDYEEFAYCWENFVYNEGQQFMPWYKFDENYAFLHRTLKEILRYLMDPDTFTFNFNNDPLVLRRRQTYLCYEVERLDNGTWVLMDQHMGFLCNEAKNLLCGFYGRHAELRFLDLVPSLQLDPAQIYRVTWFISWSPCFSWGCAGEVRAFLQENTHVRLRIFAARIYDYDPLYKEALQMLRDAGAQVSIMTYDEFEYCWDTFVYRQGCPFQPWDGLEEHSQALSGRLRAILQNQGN
UniProt O00571: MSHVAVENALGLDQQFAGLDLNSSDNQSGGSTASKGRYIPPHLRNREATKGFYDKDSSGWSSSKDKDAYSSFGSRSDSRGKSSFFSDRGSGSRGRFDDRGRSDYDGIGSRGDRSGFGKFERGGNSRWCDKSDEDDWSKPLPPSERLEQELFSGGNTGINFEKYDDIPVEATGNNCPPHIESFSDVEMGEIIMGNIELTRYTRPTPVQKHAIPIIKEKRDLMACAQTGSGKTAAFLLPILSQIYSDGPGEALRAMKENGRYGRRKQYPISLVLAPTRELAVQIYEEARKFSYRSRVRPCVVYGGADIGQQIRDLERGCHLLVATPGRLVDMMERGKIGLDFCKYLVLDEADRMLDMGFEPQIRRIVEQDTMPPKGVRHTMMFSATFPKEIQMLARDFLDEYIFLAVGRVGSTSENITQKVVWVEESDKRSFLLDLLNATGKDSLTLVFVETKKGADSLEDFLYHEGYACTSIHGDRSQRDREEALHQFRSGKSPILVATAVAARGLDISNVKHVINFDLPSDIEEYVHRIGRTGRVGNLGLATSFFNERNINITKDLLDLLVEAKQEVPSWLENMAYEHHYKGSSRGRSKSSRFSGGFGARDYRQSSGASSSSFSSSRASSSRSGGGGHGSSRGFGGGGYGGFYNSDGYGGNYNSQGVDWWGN
UniProt P11940: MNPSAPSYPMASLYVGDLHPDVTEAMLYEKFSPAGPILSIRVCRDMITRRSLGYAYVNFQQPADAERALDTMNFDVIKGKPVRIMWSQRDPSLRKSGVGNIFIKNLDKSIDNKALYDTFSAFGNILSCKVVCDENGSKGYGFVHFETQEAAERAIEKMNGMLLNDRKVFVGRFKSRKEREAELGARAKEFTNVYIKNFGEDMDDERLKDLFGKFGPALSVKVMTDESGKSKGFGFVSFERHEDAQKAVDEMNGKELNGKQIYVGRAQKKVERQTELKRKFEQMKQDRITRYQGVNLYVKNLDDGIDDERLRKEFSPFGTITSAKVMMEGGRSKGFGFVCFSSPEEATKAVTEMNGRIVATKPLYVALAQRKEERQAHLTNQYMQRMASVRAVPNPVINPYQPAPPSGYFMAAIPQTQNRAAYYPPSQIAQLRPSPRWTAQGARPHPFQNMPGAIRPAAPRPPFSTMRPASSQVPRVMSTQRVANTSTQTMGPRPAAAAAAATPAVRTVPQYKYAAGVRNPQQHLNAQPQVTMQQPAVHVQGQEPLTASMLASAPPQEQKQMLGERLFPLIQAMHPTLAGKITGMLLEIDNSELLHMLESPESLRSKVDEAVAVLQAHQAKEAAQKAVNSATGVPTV

B1: MATR3 (protein, UniProt P43243 1-847)
chain: MSKSFQQSSLSRDSQGHGRDLSAAGIGLLAAATQSLSMPASLGRMNQGTARLASLMNLGMSSSLNQQGAHSALSSASTSSHNLQSIFNIGSRGPLPLSSQHRGDADQASNILASFGLSARDLDELSRYPEDKITPENLPQILLQLKRRRTEEGPTLSYGRDGRSATREPPYRVPRDDWEEKRHFRRDSFDDRGPSLNPVLDYDHGSRSQESGYYDRMDYEDDRLRDGERCRDDSFFGETSHNYHKFDSEYERMGRGPGPLQERSLFEKKRGAPPSSNIEDFHGLLPKGYPHLCSICDLPVHSNKEWSQHINGASHSRRCQLLLEIYPEWNPDNDTGHTMGDPFMLQQSTNPAPGILGPPPPSFHLGGPAVGPRGNLGAGNGNLQGPRHMQKGRVETSRVVHIMDFQRGKNLRYQLLQLVEPFGVISNHLILNKINEAFIEMATTEDAQAAVDYYTTTPALVFGKPVRVHLSQKYKRIKKPEGKPDQKFDQKQELGRVIHLSNLPHSGYSDSAVLKLAEPYGKIKNYILMRMKSQAFIEMETREDAMAMVDHCLKKALWFQGRCVKVDLSEKYKKLVLRIPNRGIDLLKKDKSRKRSYSPDGKESPSDKKSKTDGSQKTESSTEGKEQEEKSGEDGEKDTKDDQTEQEPNMLLESEDELLVDEEEAAALLESGSSVGDETDLANLGDVASDGKKEPSDKAVKKDGSASAAAKKKLKKVDKIEELDQENEAALENGIKNEENTEPGAESSENADDPNKDTSENADGQSDENKDDYTIPDEYRIGPYQPNVPVGIDYVIPKTGFYCKLCSLFYTNEEVAKNTHCSSLPHYQKLKKFLNKLAEERRQKKET

Target: APOBEC3B-GFP/Flag (human) (UniProt Q9UH17)
Experiment: affinity purification with mass spectrometry; HEK-293T transfected with the bait; lysate treated with RNase A and Benzonase; anti-Flag M2 gel, elution with 3X-Flag peptide, then GFP-Trap beads; washes with 250 mM NaCl; SDS-PAGE bands analysed by LC-MS/MS

Molecule	binding
DDX3 (from UniProt O00571 1-662)	binds
PABPC1 (from UniProt P11940 1-636)	binds
B1	binds
